# Data from PubChem BioAssay AID2685 (National Center for Advancing Translational Sciences (NCATS), 2010).
# This is one part of the list. These are further read-outs of the screen, such as a control signal, another cell line or another target. No call is given for them. Most of these compounds were active or inconclusive in the main read-out, so they are no random draw. Potencies come from curve fits of mixed quality, noted in brackets.
# Test: qHTS Assay for Lipid Storage Modulators in Drosophila S3 Cells;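 on cell number change: cells counted by Cell Tracker Red CMTPX staining in the red channel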
# Conditions: BODIPY lipid droplet fluorescence, 18-24 h; for cell number change: measured here: cell count max response, cells fed with added oleic acid
# How it was run: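 Laser-scanning cytometry quantifies lipid droplet accumulation (500–530 nm total intensity; droplet/cell object ratio) in oleic acid-fed (400 uM added) Drosophila S3 cells treated with a concentration series. 20 uM Triacsin C defined 100% inhibition.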
# [1] = measured here: lipid fluorescence (Fed channel) AC50, cells fed with added oleic acid
# [2] = measured here: cell number channel AC50, cells fed with added oleic acid
SMILES,cell number change [%],AC50 [1],AC50 [2]
Cc1cccn2c(=O)c(C=O)c(N3CCN(C)CC3)nc12,25.5,"6.51 µM [falling, single point]",–
Cc1cccc(OCc2n(CC(=O)OC3CC(C)CCC3C(C)C)c3ccccc3[n+]2C)c1 (stereo not drawn),-66.5,"29.1 µM [falling, single point]","18.4 µM [falling, single point]"
Cc1ccnc(NC(=O)c2ccoc2C)c1,19.3,"10.3 µM [rising, partial curve]",–
O=C(N/N=C/c1ccncc1)c1cccc(S(=O)(=O)N2CCCC2)c1,–,"6.51 µM [falling, single point]","2.59 µM [falling, partial curve]"
COc1ccc(N2CCN(C(=O)CN3CCN(c4nc(-c5ccc(F)cc5)cs4)CC3)CC2)cc1,-63.5,"29.1 µM [falling, single point]","14.6 µM [falling, partial curve]"
CCOCCCNC(=O)C1CCC(CNS(=O)(=O)c2ccc(F)cc2)CC1 (stereo not drawn),-13.2,"3.66 µM [falling, partial curve, poor fit]",–
O=C(NCC1CCCO1)c1ccc(CS(=O)(=O)c2ccc(Br)cc2)o1 (stereo not drawn),10.5,–,"0.103 µM [rising, full curve, poor fit]"
Cc1nc2ccccc2nc1N/N=C/c1ccc(O)cc1O,-32.6,"29.1 µM [falling, single point]","20.6 µM [falling, single point]"
CCCCN1C2CCCC1CC(NC(=O)c1cccc(OC)c1)C2 (stereo not drawn),8.8,"6.51 µM [rising, single point]",–
Cc1ncc([N+](=O)[O-])n1CC(=O)NC1CCCC1,-58.4,"0.326 µM [falling, full curve]","0.291 µM [falling, full curve]"
CCOc1ccccc1C1CC(=O)NC(SCC(=O)Nc2nccs2)=C1C#N (stereo not drawn),–,–,"0.0326 µM [rising, full curve, poor fit]"
COc1ccc(NS(=O)(=O)c2ccc(C)c(C(=O)N(C)Cc3ccc(C)cc3)c2)cc1,85.9,–,"6.51 µM [rising, full curve]"
CCOc1ccc2[nH]c3c(NCCN(CC)CC)ncnc3c2c1,–,"6.51 µM [rising, single point]","6.51 µM [rising, single point]"
c1ccc(-c2cc3c(nn2)CCc2nonc2-3)cc1,–,"0.731 µM [rising, single point]",–
O=C(O)c1ccc(OS(=O)(=O)c2ccc(Cl)s2)c(Cl)c1,-0.889,"11.6 µM [rising, partial curve, poor fit]",–
COc1ccc(-n2cc3ccc([N+](=O)[O-])cc3n2)cc1,–,"6.51 µM [rising, single point]","0.58 µM [rising, partial curve, poor fit]"
CC(Oc1ccc(Cl)cc1)C(=O)NNC(=S)NC(=O)c1ccco1 (stereo not drawn),-4.7,–,–
Cc1cc(C)n(S(=O)(=O)c2ccc(C)c(C)c2)n1,-4.76,–,–

SMILES,cell number change [%],AC50 [1],AC50 [2]
CNC(=S)Nc1sc2c(c1C(=O)OC)CCC2,-8.39,–,–
O=C(Nc1ccsc1C(=O)O)c1ccccc1Cl,–,–,"3.26 µM [falling, single point]"
COc1ccc(S(=O)(=O)NCCc2c[nH]c3ccc(C)cc23)cc1,-7.02,"29.1 µM [falling, single point]",–
O=C(NCc1ccco1)c1ccc(Cn2c(=O)c3sccc3n(Cc3ccc(F)cc3)c2=O)cc1,-37.9,"0.291 µM [rising, partial curve]",–
Cc1cccc(-n2nc(C)c3c(C(=O)O)cc(-c4cccs4)nc32)c1,-0.24,"0.116 µM [falling, partial curve, poor fit]",–
Cc1coc2cc3oc(=O)c(CC(=O)N[C@@H](CC(C)C)C(=O)O)c(C)c3cc12,23,"8.2 µM [rising, partial curve, poor fit]",–
CCOC(=O)c1cnc(-n2nc(C)cc2C)nc1Oc1ccc(C(=O)OC)cc1,–,"0.13 µM [rising, full curve, poor fit]","0.13 µM [rising, full curve]"
CCOC(=O)/C(N=Nc1sc(C(=O)OC)c(C)c1C(=O)OCC)=C(\O)CCl,-25.8,"29.1 µM [falling, single point]",–
CCOC(=O)/C(C(=O)Nc1ccccc1Cl)=C1/NC(C)(C)Cc2ccccc21,48.3,"18.4 µM [rising, partial curve]","13 µM [rising, single point]"
CC(=O)C1=C(C)NC(SCC(=O)c2ccccc2)=C(C#N)C1CC(C)C (stereo not drawn),29.4,"4.61 µM [rising, partial curve]","1.64 µM [rising, full curve, poor fit]"
Cc1cc(NS(=O)(=O)c2ccc(NC(=O)Cc3ccccc3)cc2)nc(C)n1,28.7,"6.51 µM [rising, single point]",–
COc1ccc(C2Nc3ccccc3C(=O)N2NC(C)=O)cc1OC (stereo not drawn),-38,"2.91 µM [rising, partial curve]","32.6 µM [falling, single point]"
CCn1c(SCC(=O)NC(C)(C)C)nnc1-c1ccccn1,18,"6.51 µM [rising, single point]",–
COc1cccc(NC(=O)CSc2nccn(-c3ccc4c(c3)OCCO4)c2=O)c1,-50,–,"29.1 µM [falling, single point]"
Cc1onc(-c2ccccc2)c1C(=O)N/N=C/c1cc2c(cc1Cl)OCO2,34.4,"1.16 µM [rising, full curve]","0.13 µM [rising, full curve]"
CCOC(=O)c1ccc(-n2c(CC)nc3ccccc3c2=O)cc1,8.5,"4.11 µM [rising, single point]",–
CCOC(=O)C1(CCOc2ccccc2)CCN(Cc2ccc(F)c(OC)c2)CC1,-5.41,"6.51 µM [falling, single point]","6.51 µM [falling, single point]"

# Part of the list above, as tab-separated lines:
SMILES	cell number change [%]	AC50 [1]	AC50 [2]
CC(=O)C1=C(C)NC(SCC(=O)c2ccccc2)=C(C#N)C1CC(C)C (stereo not drawn)	29.4	4.61 µM [rising, partial curve]	1.64 µM [rising, full curve, poor fit]
Cc1cc(NS(=O)(=O)c2ccc(NC(=O)Cc3ccccc3)cc2)nc(C)n1	28.7	6.51 µM [rising, single point]	–
COc1ccc(C2Nc3ccccc3C(=O)N2NC(C)=O)cc1OC (stereo not drawn)	-38	2.91 µM [rising, partial curve]	32.6 µM [falling, single point]
CCn1c(SCC(=O)NC(C)(C)C)nnc1-c1ccccn1	18	6.51 µM [rising, single point]	–
COc1cccc(NC(=O)CSc2nccn(-c3ccc4c(c3)OCCO4)c2=O)c1	-50	–	29.1 µM [falling, single point]
Cc1onc(-c2ccccc2)c1C(=O)N/N=C/c1cc2c(cc1Cl)OCO2	34.4	1.16 µM [rising, full curve]	0.13 µM [rising, full curve]
CCOC(=O)c1ccc(-n2c(CC)nc3ccccc3c2=O)cc1	8.5	4.11 µM [rising, single point]	–
